According to patent US7122651B1, “Nucleic acid molecules encoding opioid growth factor receptors” (priority 1998, dated 2006):

Biological target: T1, nuclear homogenates of human pancreatic tumor cells (PANC-1) (Homo sapiens, UniProt Q9NZT2)
T1 construct: host or cells: PANC-1; nuclear (P1) homogenates, and P2, P3 and S3 fractions in the fractionation study
T1 sequence (Q9NZT2 1-677): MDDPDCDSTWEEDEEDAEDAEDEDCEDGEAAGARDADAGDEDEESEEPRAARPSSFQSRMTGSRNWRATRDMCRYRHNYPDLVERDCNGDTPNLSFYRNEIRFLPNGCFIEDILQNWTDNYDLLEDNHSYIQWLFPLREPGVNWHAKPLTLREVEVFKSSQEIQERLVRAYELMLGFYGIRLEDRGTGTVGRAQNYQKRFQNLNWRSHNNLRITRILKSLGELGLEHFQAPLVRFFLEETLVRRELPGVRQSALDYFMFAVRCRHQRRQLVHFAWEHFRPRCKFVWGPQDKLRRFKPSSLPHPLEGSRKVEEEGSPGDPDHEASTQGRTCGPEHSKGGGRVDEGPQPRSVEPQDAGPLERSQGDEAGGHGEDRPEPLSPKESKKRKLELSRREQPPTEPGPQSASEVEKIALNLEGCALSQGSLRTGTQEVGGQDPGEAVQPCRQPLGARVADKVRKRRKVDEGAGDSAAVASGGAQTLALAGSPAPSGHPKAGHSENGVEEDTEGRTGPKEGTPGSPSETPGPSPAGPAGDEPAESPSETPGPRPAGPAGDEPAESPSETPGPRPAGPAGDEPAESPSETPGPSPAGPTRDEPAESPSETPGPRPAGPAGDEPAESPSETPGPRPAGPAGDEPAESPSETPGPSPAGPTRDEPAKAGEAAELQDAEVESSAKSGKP
Test: Competition for binding of [^3H]-[Met^5]-enkephalin in PANC-1 nuclear homogenates
Settings: 1 or 2 nM radioligand
Method: Each concentration was run in triplicate and every compound was tested twice.
Analysis and statistics. Receptor binding data were analyzed with either the Lundon I (Saturation Isotherm Binding Analysis) computer program (Lundon Software, Cleveland, Ohio) or GraphPad Prism software. Both programs utilize nonlinear least-squares regression. Binding isotherms and Scatchard plots were computed directly by the programs. […] Comparisons of Bmax and Kd values were made using analysis of variance and posthoc Newman-Keuls tests.
Competition experiments using 1 or 2 nM [^3H]

CN1CC[C@]23c4c5ccc(O)c4O[C@H]2[C@@H](O)C=C[C@H]3[C@H]1C5 [Morphine]
competition for [^3H][Met^5]-enkephalin binding: little or no competition
